Measurements reported in PubChem BioAssay AID686938 (Drosophila RNAi Screening Center, 2013).
Assay: 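Knock-downs reducing store-operated calcium influx in Drosophila cells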 (primary screen). Cell system: Drosophila S2R+ cells. Reagents: long dsRNA against Drosophila genes, about 0.25 µg dsRNA per well, roughly 10,000 cells. Time to read-out: 5 days of knock-down before the calcium assay. Conditions: thapsigargin (SERCA pump blocker) to empty calcium stores; entry signal taken 4 min after adding it. Detection: 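Duplicate raw fluo-4 intensities per well from a plate reader, at rest and four minutes after thapsigargin emptied calcium stores; entry-to-rest ratio filled for only some wells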. Scale: calcium entry signal: higher = stronger calcium signal after store depletion; entry to resting ratio: higher = more calcium entry relative to resting level; resting calcium signal: higher = higher resting calcium signal. Call rule: 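Called when the plate z-score of the entry-to-rest ratio, mean of duplicates, falls below −3; wells with low overall dye signal (Fmax z below −2) or more than five off-targets excluded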. Calls: active = strongly reduced calcium entry; inactive = no strong reduction.
In all, the deposit lists about 23,000 reagents; shown is an unselected part of those that have a named target and a result. Over the whole deposit, 75 (0.33%) are marked active. 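Raw plate signals without normalisation; calls rest on plate z-scores that were not deposited; ratio present for only 364 wells.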 Names joined by + are all predicted targets of the reagent. Reagent sequences are not shown. Not given: the dose of the treatment.

Gene | amplicon | calcium entry signal, replicate 1 (fluorescence units) | calcium entry signal, replicate 2 (fluorescence units) | entry to resting ratio | resting calcium signal, replicate 1 (fluorescence units) | resting calcium signal, replicate 2 (fluorescence units) | Call
CG42512 + CG32573 | DRSC19532 | 2.76e7 | 3.38e7 | – | 1.44e7 | 1.51e7 | inactive
CG42512 + CG32573 | DRSC19906 | 2.94e7 | 3.26e7 | – | 1.23e7 | 1.38e7 | inactive
CG42512 + CG32573 | DRSC22782 | 4.70e7 | 3.96e7 | – | 2.77e7 | 1.72e7 | inactive
CG18324 (GeneID 36568) | DRSC06721 | 4.76e7 | 3.85e7 | – | 1.98e7 | 1.79e7 | inactive
fz3 (GeneID 31023) | DRSC18779 | 3.70e7 | 4.84e7 | 2 | 1.87e7 | 1.86e7 | inactive
Nepl19 (GeneID 43411) | DRSC14875 | 3.76e7 | 3.05e7 | – | 2.05e7 | 1.64e7 | inactive
CG9168 (GeneID 38163) | DRSC08633 | 3.38e7 | 4.12e7 | – | 1.69e7 | 1.84e7 | inactive
Atat (GeneID 39086) | DRSC10392 | 5.61e7 | 4.10e7 | – | 3.60e7 | 1.73e7 | inactive
Osi19 (GeneID 40776) | DRSC12569 | 3.67e7 | 3.65e7 | – | 1.84e7 | 1.75e7 | inactive
CG4438 (GeneID 34257) | DRSC02746 | 3.18e7 | 5.28e7 | – | 1.65e7 | 2.27e7 | inactive
RhoGEF64C (GeneID 38578) | DRSC08318 | 5.13e7 | 3.46e7 | – | 3.51e7 | 1.56e7 | inactive
RhoGEF64C (GeneID 38578) | DRSC08319 | 3.08e7 | 5.14e7 | – | 1.43e7 | 2.07e7 | inactive
CG33285 (GeneID 2768988) | DRSC11463 | 3.81e7 | 3.89e7 | – | 1.84e7 | 1.82e7 | inactive
dpr7 (GeneID 2768865) | DRSC17109 | 3.85e7 | 3.70e7 | – | 1.83e7 | 1.50e7 | inactive
lncRNA:iab4 (GeneID 3772110) | DRSC22331 | 3.83e7 | 7.19e7 | – | 1.86e7 | 2.90e7 | inactive
CG9400 (GeneID 32385) | DRSC20182 | 2.91e7 | 3.59e7 | – | 1.44e7 | 1.59e7 | inactive
Cdk4 (GeneID 36854) | DRSC07358 | 3.92e7 | 3.54e7 | – | 1.85e7 | 1.89e7 | inactive
CtsL1 (GeneID 36546) | DRSC05462 | 3.86e7 | 5.79e7 | – | 2.30e7 | 2.43e7 | inactive
CtsL1 (GeneID 36546) | DRSC07363 | 3.28e7 | 3.32e7 | – | 1.46e7 | 1.41e7 | inactive
CG32305 (GeneID 317967) | DRSC08614 | 3.24e7 | 4.42e7 | – | 1.73e7 | 1.98e7 | inactive
CG34247 (GeneID 5740480) | DRSC09933 | 3.19e7 | 4.34e7 | – | 1.80e7 | 1.86e7 | inactive
CG8562 (GeneID 38828) | DRSC10995 | 2.67e7 | 4.60e7 | – | 1.31e7 | 1.78e7 | inactive
dah (GeneID 32459) | DRSC20320 | 2.75e7 | 3.54e7 | – | 1.24e7 | 1.57e7 | inactive
SecCl (GeneID 39949) | DRSC10887 | 3.78e7 | 5.23e7 | – | 1.77e7 | 2.33e7 | inactive
CG15719 (GeneID 32249) | DRSC19685 | 3.32e7 | 5.35e7 | – | 1.63e7 | 2.59e7 | inactive
CG13331 (GeneID 36503) | DRSC06366 | 3.58e7 | 3.68e7 | – | 1.75e7 | 1.54e7 | inactive
fred (GeneID 33613) | DRSC00349 | 4.07e7 | 3.96e7 | – | 2.03e7 | 1.83e7 | inactive
fred (GeneID 33613) | DRSC00599 | 3.61e7 | 4.71e7 | – | 1.70e7 | 2.26e7 | inactive
fred (GeneID 33613) | DRSC00601 | 4.07e7 | 4.31e7 | – | 1.96e7 | 2.03e7 | inactive
fred (GeneID 33613) | DRSC00602 | 4.08e7 | 4.25e7 | – | 2.02e7 | 1.96e7 | inactive
fred (GeneID 33613) | DRSC21906 | 3.49e7 | 4.02e7 | – | 1.66e7 | 1.87e7 | inactive
CG13898 (GeneID 38092) | DRSC08368 | 3.78e7 | 3.82e7 | – | 2.08e7 | 1.94e7 | inactive
Arf4 (GeneID 43823) | DRSC17195 | 4.75e7 | 4.59e7 | 1.7 | 2.74e7 | 2.79e7 | inactive
Rab6 (GeneID 34636) | DRSC03404 | 4.80e7 | – | – | 2.25e7 | – | inactive
CG10383 (GeneID 35123) | DRSC02050 | 4.17e7 | – | – | 2.03e7 | – | inactive
Dop1R2 (GeneID 43484) | DRSC13958 | 3.91e7 | 4.78e7 | – | 1.85e7 | 2.28e7 | inactive
Dop1R2 (GeneID 43484) | DRSC15379 | 3.17e7 | 4.60e7 | – | 1.65e7 | 2.04e7 | inactive
eIF2Bbeta (GeneID 31256) | DRSC18465 | 3.96e7 | 4.33e7 | 2.3 | 1.74e7 | 1.60e7 | inactive
CAH14 (GeneID 37359) | DRSC04234 | 5.03e7 | 5.06e7 | – | 2.45e7 | 2.15e7 | inactive
CAH14 (GeneID 37359) | DRSC22160 | 3.11e7 | 4.43e7 | – | 1.64e7 | 2.30e7 | inactive
